PubChem BioAssay AID1159579 | Peter MacCallum Cancer Centre, 2015

Aim: 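Follow-up screen seeking modulators of motility in lymphatic endothelial cells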 (follow-up of hits)
Cells: human dermal lymphatic endothelial cells
Reagents: single siRNA against human genes, 25 nM
Read-out: 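High content images of wound closure area and cell nuclei counts, each the average of two wells, expressed against mock transfection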
Scale: migration relative to mock: higher = more migration into the scratch; mean nuclei count: higher = more cells remaining
Active means: 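a ratio of at most 0.6 or at least 1.3 marks altered migration and an active call; a mean nuclei count under 3300 forces an inactive call regardless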
Calls: active = migration changed (impaired or accelerated); inactive = no migration change, or too few cells
The whole screen tested about 2,000 reagents; shown is an unselected part. Over the whole deposit, 549 (27%) got an active call. 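Some migration ratios are negative; siRNAs with too few cells are inactive whatever their migration ratio.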 Unmarked entries are inactive. The numbers tell different reagents against one gene apart. Not given: the time to read-out.

gene	reagent	migration relative to mock	migration and cell number class	mean nuclei count
BTF3 (basic transcription factor 3)	1	0.54 (active)	migration reduced	6272
BTF3 (basic transcription factor 3)	2	0.88	no change in migration or cell number	6722
BTF3 (basic transcription factor 3)	3	0.65	no change in migration or cell number	5698
BTF3 (basic transcription factor 3)	4	0.83	no change in migration or cell number	5100
CTRL (chymotrypsin like)	1	0.78	no change in migration or cell number	5598
CTRL (chymotrypsin like)	2	0.5 (active)	migration reduced	3566
CTRL (chymotrypsin like)	3	0.98	no change in migration or cell number	5604
CTRL (chymotrypsin like)	4	0.7	no change in migration or cell number	5759
MTPN (myotrophin)	1	0.56 (active)	migration reduced	4688
MTPN (myotrophin)	2	0.9	no change in migration or cell number	6366
MTPN (myotrophin)	3	0.51 (active)	migration reduced	3772
MTPN (myotrophin)	4	0.48 (active)	migration reduced	6857
PER1 (period circadian regulator 1)	1	0.96	no change in migration or cell number	5074
PER1 (period circadian regulator 1)	2	1.14	no change in migration or cell number	5694
PER1 (period circadian regulator 1)	3	0.88	no change in migration or cell number	6339
PER1 (period circadian regulator 1)	4	0.88	no change in migration or cell number	5516
PDXK (pyridoxal kinase)	1	0.92	no change in migration or cell number	5490
PDXK (pyridoxal kinase)	2	0.88	no change in migration or cell number	7339
PDXK (pyridoxal kinase)	3	0.93	no change in migration or cell number	6526
PDXK (pyridoxal kinase)	4	0.72	no change in migration or cell number	5888
CRABP2 (cellular retinoic acid binding protein 2)	1	0.96	no change in migration or cell number	7082
CRABP2 (cellular retinoic acid binding protein 2)	2	0.62	no change in migration or cell number	5760
CRABP2 (cellular retinoic acid binding protein 2)	3	0.47 (active)	migration reduced	4798
CRABP2 (cellular retinoic acid binding protein 2)	4	0.25 (active)	migration reduced	5249
PSEN2 (presenilin 2)	1	0.3 (active)	migration reduced	5232
PSEN2 (presenilin 2)	2	0.7	no change in migration or cell number	7498
PSEN2 (presenilin 2)	3	0.54 (active)	migration reduced	5973
PSEN2 (presenilin 2)	4	0.6 (active)	migration reduced	5054
ARL6IP1 (ARL6 interacting reticulophagy regulator 1)	1	1.06	no change in migration or cell number	5389
ARL6IP1 (ARL6 interacting reticulophagy regulator 1)	2	-0.27 (active)	migration reduced	3831
ARL6IP1 (ARL6 interacting reticulophagy regulator 1)	3	1.02	no change in migration or cell number	6262
ARL6IP1 (ARL6 interacting reticulophagy regulator 1)	4	0.74	no change in migration or cell number	4269
MTR (5-methyltetrahydrofolate-homocysteine methyltransferase)	1	0.8	no change in migration or cell number	6194
MTR (5-methyltetrahydrofolate-homocysteine methyltransferase)	2	0.65	no change in migration or cell number	5560
MTR (5-methyltetrahydrofolate-homocysteine methyltransferase)	3	0.8	no change in migration or cell number	5711
MTR (5-methyltetrahydrofolate-homocysteine methyltransferase)	4	0.96	no change in migration or cell number	7451
SUMO2 (small ubiquitin like modifier 2)	1	1.08	no change in migration or cell number	6572
SUMO2 (small ubiquitin like modifier 2)	2	1.16	no change in migration or cell number	5994
SUMO2 (small ubiquitin like modifier 2)	3	1.06	no change in migration or cell number	6812
SUMO2 (small ubiquitin like modifier 2)	4	0.82	no change in migration or cell number	4482
DEFA3 (defensin alpha 3)	1	0.82	no change in migration or cell number	5715
DEFA3 (defensin alpha 3)	2	0.56 (active)	migration reduced	5468
DEFA3 (defensin alpha 3)	3	0.62	no change in migration or cell number	7414
DEFA3 (defensin alpha 3)	4	0.73	no change in migration or cell number	5466
UGT1A7 (UDP glucuronosyltransferase family 1 member A7)	1	0.66	no change in migration or cell number	4865
UGT1A7 (UDP glucuronosyltransferase family 1 member A7)	2	0.34 (active)	migration reduced	4190
UGT1A7 (UDP glucuronosyltransferase family 1 member A7)	3	0.44 (active)	migration reduced	5212
UGT1A7 (UDP glucuronosyltransferase family 1 member A7)	4	0.78	no change in migration or cell number	5434

Not a retest: 5 of the entries above.
gene	reagent	migration relative to mock	migration and cell number class	mean nuclei count
ARL6IP1 (ARL6 interacting reticulophagy regulator 1)	2	-0.27 (active)	migration reduced	3831
ARL6IP1 (ARL6 interacting reticulophagy regulator 1)	3	1.02	no change in migration or cell number	6262
ARL6IP1 (ARL6 interacting reticulophagy regulator 1)	4	0.74	no change in migration or cell number	4269
MTR (5-methyltetrahydrofolate-homocysteine methyltransferase)	1	0.8	no change in migration or cell number	6194
MTR (5-methyltetrahydrofolate-homocysteine methyltransferase)	2	0.65	no change in migration or cell number	5560
